Reference: PubChem BioAssay AID1347076 (National Center for Advancing Translational Sciences (NCATS), 2019)
The whole screen tested about 400,000 compounds, of which about 13,000 (3.2%) were called active. The inconclusive results got no clear call from the source; some entries with a clear call stand among them for comparison. Calls come from the whole dose curve; as a rule, active = well fitted cell-killing curve with a large enough effect; inconclusive = small, poorly fitted or top-dose-only effect, or effect the other way; inactive = flat fitted curve, though single readings scatter. Where the call is inconclusive, the potency comes from a doubtful curve fit.
% is set by controls: 0 for no effect and ±100 for the full control effect; potency is the fitted concentration of half-maximal effect.

Experiment: qHTS assay for MDR1-selective chemotherapeutics: Primary screen using the drug-selected MDR subline cells KB-V1; note: nearly all actives have a fitted effect of over 60% in size
Details: KB-V1 MDR cells viability, CellTiter-Glo, 72 h; activity change, negative = cytotoxicity: at 46.1 µM (top of the series)
Outline: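 Cytotoxicity toward P-gp-expressing KB-V1 cells was determined as loss of CellTiter-Glo luminescence after 72 h at 37 degrees C. Compounds were tested in quantitative HTS format across a concentration range, with curves fitted to normalized data.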
For `COC(=O)c1[nH]c2cccc(Cl)c2c1NC(=O)CN1CCCCC1C` (stereo unspecified), the Potency was inconclusive: 20.6 µM [cytotoxic, partial curve, poor fit]. For `C=CCn1c(COc2ccc(F)cc2)nnc1SCC(=O)NC1CC1`, the “activity change, negative = cytotoxicity” value was inactive: 15.4%. For `Cc1nn(C)cc1C(C)Nc1nc2nonc2nc1N1CCCCC1` (stereo unspecified), the Potency was inconclusive: 13 µM [cytotoxic, partial curve, poor fit]. In the case of `CCOc1ccccc1NC(=O)CSc1nc2ccccc2nc1N1CCCC1`, the “activity change, negative = cytotoxicity” value is reported as inactive: -14.1%. With `Cc1ccc(C(=O)N2CCCC(CCC(=O)N3CCN(c4ccccn4)CC3)C2)s1` (stereo unspecified) the Potency was inconclusive: 20.6 µM [cytotoxic, single point]. With `CC(C)n1c(=O)c2ccccc2n1Cc1cn(Cc2cccs2)nn1` the “activity change, negative = cytotoxicity” value was inactive: 9.68%. With `COc1cccc(NC(=O)CN(C)C(=O)c2cc(C)oc2C)c1` the Potency was inconclusive: 20.6 µM [cytotoxic, single point]. With `COc1cccc(NC(=O)CSc2nnc(CNC(=O)c3ccco3)n2C)c1` the “activity change, negative = cytotoxicity” value was inactive: 15.8%. For `CCOC(=O)N1CCN(S(=O)(=O)c2ccc(C(=O)Nc3nc4ccc(F)cc4s3)cc2)CC1`, the Potency was inconclusive: 2.06 µM [cytotoxic, partial curve, poor fit]. In the case of `CCN(Cc1ccccc1)S(=O)(=O)c1ccc(C(=O)Nc2nnc(C3CC3)o2)cc1`, the “activity change, negative = cytotoxicity” value is reported as inactive: -11.8%. For `CC(=O)c1ccc(NC(=O)CSc2ccc(-c3ccco3)nn2)cc1`, the Potency was inconclusive: 29.1 µM [cytotoxic, single point]. For `O=C(N[C@@H]1CCC(=O)N(CC[C@H](Sc2ccc(Br)cc2)c2ccccc2)CC1)OCc1ccccc1`, the Potency was inconclusive: 18.4 µM [cytotoxic, single point]. In the case of `NS(=O)(=O)c1cccc(NC(=O)COC(=O)CNC(=O)c2ccc(-c3ccccc3)cc2)c1`, the Potency is reported as inconclusive: 23.1 µM [rising, single point]. For `COc1ccc(OC)c(CCNC(=O)c2cccc(NC3=NC4CS(=O)(=O)CC4S3)c2)c1` (stereo unspecified), the “activity change, negative = cytotoxicity” value was inactive: 1.17%. With `CCOC(=O)Cc1cnc(NC(=O)CSc2nc3ncnc(N)c3[nH]2)s1` the Potency was inconclusive: 29.1 µM [rising, single point]. For `Cn1c(=O)c2c(ncn2CC(=O)OCC(=O)Nc2ccc(Cl)cc2Cl)n(C)c1=O`, the Potency was inconclusive: 20.6 µM [rising, single point]. In the case of `O=C(Nc1ccccc1)Nc1nnc(Cc2ccc(F)cc2)s1`, the Potency is reported as inconclusive: 18.4 µM [cytotoxic, partial curve, poor fit]. In the case of `CCOC(=O)c1c(C)oc2ccc(N(C(=O)c3ccncc3)S(=O)(=O)c3ccc(F)cc3)cc12`, the Potency is reported as inconclusive: 6.51 µM [cytotoxic, partial curve]. For `CCOC(=O)C1=C(NC(=S)NC(=O)c2ccccc2)c2ccccc2CC1C(C)C` (stereo unspecified), the Potency was inconclusive: 6.51 µM [cytotoxic, partial curve]. For `COC(=O)[C@]12CCCCC=C1N(Cc1ccc3c(c1)OCO3)C(=O)[C@H](CC(=O)NCC1CCCCC1)C2`, the Potency was inconclusive: 9.2 µM [cytotoxic, partial curve]. In the case of `CCN(Cc1ccccc1)C(=O)CCS(=O)(=O)c1cc(Br)cc2c1N(C(=O)C1CC1)CC2`, the “activity change, negative = cytotoxicity” value is reported as inactive: -12.6%. In the case of `O=C(CCCCCBr)N1CCC(CC2CC(c3ccc(Cl)cc3)=NO2)(C(=O)NCC2CCCCC2)CC1` (stereo unspecified), the Potency is reported as inconclusive: 29.1 µM [cytotoxic, single point]. For `Cc1cccn2c(=O)c(/C=C3\SC(=S)N(CC(C)C)C3=O)c(NCCCOC(C)C)nc12`, the Potency was inconclusive: 4.11 µM [cytotoxic, partial curve, poor fit]. With `COc1ccc(OC)c(-c2cc(C(=O)N/N=C/c3cc(OC)c(OC)cc3OC)c3ccccc3n2)c1` the “activity change, negative = cytotoxicity” value was inactive: 0.766%. In the case of `N#CCSc1nnc(-c2sc3ccccc3c2Cl)o1`, the Potency is reported as inconclusive: 29.1 µM [cytotoxic, single point]. In the case of `Cc1cccc(NC(=S)N(C)C2CCCCC2)c1`, the “activity change, negative = cytotoxicity” value is reported as inactive: 16.2%. In the case of `CN(C)S(=O)(=O)c1cccc(C(=O)C2=C3SC=C(c4ccccc4)N3CC2)c1`, the Potency is reported as inconclusive: 29.1 µM [cytotoxic, single point]. In the case of `CCn1c(=O)c(CCC(=O)N2CCOCC2)c(C)c2c(C)nn(-c3ccccc3)c21`, the activity change, negative = cytotoxicity is reported as inconclusive: -0.579%. For `O=C(COc1ccc(C(=S)N2CCOCC2)cc1)Nc1ccccc1C(F)(F)F`, the Potency was inconclusive: 9.2 µM [cytotoxic, partial curve, poor fit]. For `COc1c(C(=O)NC(=S)Nc2nnn(C)n2)cc2ccccc2c1Br`, the “activity change, negative = cytotoxicity” value was inactive: 19.2%. In the case of `CC(OC(=O)c1cc2sccc2n1C)C(=O)NCCc1ccccc1` (stereo unspecified), the Potency is reported as active: 13 µM. In the case of `CCc1cccc(N2C(=O)CSC23C(=O)N(Cc2ccccc2F)c2ccccc23)c1` (stereo unspecified), the Potency is reported as active: 14.6 µM. In the case of `COc1ccc2oc(=Nc3cccc(F)c3)c(C(N)=O)cc2c1`, the Potency is reported as inconclusive: 13 µM [cytotoxic, partial curve]. In the case of `C=CCn1sc(N)c(C(=O)OCC)c1=S`, the Potency is reported as inconclusive: 20.6 µM [cytotoxic, single point]. With `O=c1oc(-c2ccccc2)cc(Cl)c1Cl` the Potency was inconclusive: 29.1 µM [cytotoxic, single point]. For `Cc1nc2scc(C)n2c(=O)c1S(=O)(=O)Nc1ccc(F)cc1`, the “activity change, negative = cytotoxicity” value was inactive: -5.74%. In the case of `O=c1ccc2cc(O)c(O)cc2o1`, the Potency is reported as inconclusive: 16.4 µM [cytotoxic, single point]. With `C=C1C(=O)[C@@]23[C@H](O)C[C@@H]4C(C)(C)CC[C@H](O)[C@]4(C)[C@@H]2C[C@H](O)[C@@H]1[C@H]3O` the Potency was inconclusive: 23.1 µM [rising, partial curve, poor fit]. With `CCCCN1CCS(=O)(=O)N(Cc2ccccc2Br)CC(C(=O)OC)C1` (stereo unspecified) the Potency was inconclusive: 29.1 µM [cytotoxic, single point]. With `OCCN1CCN(CC(O)COc2ccc(-c3ccccc3)cc2)CC1` (stereo unspecified) the “activity change, negative = cytotoxicity” value was inactive: 3.87%. For `Cc1ccc(CN(C(=O)N2CCN(C)CC2)S(=O)(=O)c2ccc(C)cc2)cc1`, the Potency was inconclusive: 1.64 µM [rising, full curve]. For `O=[N+]([O-])c1ccc(N/N=C/c2cn(-c3ccccc3)nc2-c2ccccc2)cc1`, the Potency was inconclusive: 23.1 µM [cytotoxic, single point]. With `Cn1c(=NC(=O)c2ccco2)sc2ccccc21` the Potency was active: 16.4 µM. For `Cc1ccc(NC(=O)CCCN2C(=O)/C(=C/C=C/c3ccccc3)SC2=S)cc1`, the Potency was inconclusive: 25.9 µM [cytotoxic, single point]. With `O=C1NCCN1Cc1ccccc1F` the Potency was inconclusive: 22.4 µM [cytotoxic, single point]. With `O=[N+]([O-])c1ccc(N/N=C/c2cccc(O)c2O)c(S(=O)(=O)N2CCOCC2)c1` the Potency was inconclusive: 13 µM [cytotoxic, partial curve]. For `CC(C)NC(=O)NC(=O)CSc1ncccn1`, the Potency was inconclusive: 13 µM [rising, partial curve, poor fit]. With `CCCCNc1ncnc2c1cnn2-c1ccc(Cl)cc1` the Potency was inconclusive: 3.26 µM [cytotoxic, full curve, poor fit]. With `Cc1cc(C)c(NC(=O)Cn2nnc(C(=O)NCc3cccs3)c2N)c(C)c1` the Potency was inconclusive: 18.4 µM [rising, partial curve]. With `CN1CCN(S(=O)(=O)c2cccc(C(=O)Nc3ccccc3N3CCCC3)c2)CC1` the Potency was inconclusive: 8.2 µM [cytotoxic, partial curve]. With `CCc1ccc(N2C(=O)CN(Cc3ccc(OC)c(OC)c3)C2=S)cc1` the Potency was inconclusive: 6.51 µM [cytotoxic, partial curve]. For `Cn1c(/C(C#N)=C(\O)CN2CCN(Cc3ccccc3)CC2)nc2ccccc21`, the Potency was inconclusive: 20.6 µM [cytotoxic, partial curve, poor fit]. For `O=S(=O)(c1ccccc1)c1ccc(N2CCCCCC2)cc1`, the Potency was inconclusive: 32.6 µM [cytotoxic, partial curve, poor fit]. With `COc1ccccc1NC(=O)C(C)N(C)Cc1ccc(Cl)s1` (stereo unspecified) the “activity change, negative = cytotoxicity” value was inactive: -13.9%. In the case of `Brc1ccccc1OCCN1CCOCC1`, the “activity change, negative = cytotoxicity” value is reported as inactive: -4.56%. In the case of `CSc1ccc(CNC(=O)c2ccc3c(c2)N(C)C(=O)C2CCCCN32)cc1` (stereo unspecified), the activity change, negative = cytotoxicity is reported as inconclusive: -16.2%. For `Cc1ccc(N(CC(=O)Nc2cc(Cl)ccc2Oc2ccccc2)S(C)(=O)=O)cc1C`, the Potency was active: 20.6 µM. With `CCOc1cc(/C=N/NC(=O)c2ccc(CN3CCOCC3)cc2)ccc1OC` the “activity change, negative = cytotoxicity” value was inactive: -9.38%. With `CCOC(=O)N1CCN(CC(O)COc2c(OC)cccc2OC)CC1` (stereo unspecified) the Potency was inconclusive: 16.4 µM [cytotoxic, partial curve]. In the case of `CC1CC(C)CN(C(=O)c2ccc3ccccc3c2)C1` (stereo unspecified), the Potency is reported as inconclusive: 25.9 µM [cytotoxic, partial curve, poor fit]. In the case of `C/C(=N\Nc1nncc2ccccc12)c1ccc(OCC(=O)N(C)C)cc1`, the Potency is reported as inconclusive: 29.1 µM [rising, single point]. With `CCCCNC(=O)c1cnn2c(C)c(Cc3c(C)cc(C)cc3C)c(C)nc12` the Potency was inconclusive: 20.6 µM [cytotoxic, single point]. For `Cc1ccccc1OCc1ccc(-c2nc(C#N)c(N3CCCCC3)o2)o1`, the Potency was inconclusive: 25.9 µM [cytotoxic, single point]. In the case of `COc1cc(NC(=O)Cn2c(=O)n(-c3ccccc3)c(=O)c3c4c(sc32)CCCC4)cc(OC)c1`, the Potency is reported as inconclusive: 18.4 µM [rising, partial curve, poor fit]. With `CCC(CC)Nc1ccc(C(CC(N)=O)NC(=O)Cc2cccc3ccccc23)cc1[N+](=O)[O-]` (stereo unspecified) the Potency was inconclusive: 29.1 µM [rising, single point]. In the case of `Brc1cc2c(cc1C1Nc3ccccc3C3C=CCC31)OCO2` (stereo unspecified), the Potency is reported as inconclusive: 23.1 µM [cytotoxic, partial curve].
